Assay results: paper PMC11773488
These are yes or no findings as the source states them, for the method shown. In cells and extracts the contact can be indirect. Some binding calls cover weakened binding; strength is not graded here.

The chains behind the UniProt entries cited, without tags or fusion partners.
UniProt P21462: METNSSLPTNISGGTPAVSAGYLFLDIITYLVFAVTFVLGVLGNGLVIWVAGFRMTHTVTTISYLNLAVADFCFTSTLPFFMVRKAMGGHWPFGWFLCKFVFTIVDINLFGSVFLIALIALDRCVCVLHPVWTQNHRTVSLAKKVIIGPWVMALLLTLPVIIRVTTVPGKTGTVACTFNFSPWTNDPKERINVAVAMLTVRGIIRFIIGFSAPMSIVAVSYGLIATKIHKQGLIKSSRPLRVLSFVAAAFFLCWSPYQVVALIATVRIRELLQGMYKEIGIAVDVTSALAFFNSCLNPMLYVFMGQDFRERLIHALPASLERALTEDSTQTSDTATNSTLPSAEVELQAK
UniProt P49407: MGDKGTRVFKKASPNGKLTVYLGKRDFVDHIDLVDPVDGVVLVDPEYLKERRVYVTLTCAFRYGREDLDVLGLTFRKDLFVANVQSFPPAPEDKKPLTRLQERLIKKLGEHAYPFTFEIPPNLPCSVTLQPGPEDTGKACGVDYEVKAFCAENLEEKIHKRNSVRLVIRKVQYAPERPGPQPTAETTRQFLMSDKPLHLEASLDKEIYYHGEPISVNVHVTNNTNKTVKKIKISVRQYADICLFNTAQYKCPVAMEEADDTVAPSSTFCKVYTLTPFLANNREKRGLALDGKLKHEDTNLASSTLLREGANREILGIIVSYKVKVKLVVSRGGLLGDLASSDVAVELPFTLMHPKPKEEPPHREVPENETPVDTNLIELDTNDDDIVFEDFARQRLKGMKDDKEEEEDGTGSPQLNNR
UniProt P32121: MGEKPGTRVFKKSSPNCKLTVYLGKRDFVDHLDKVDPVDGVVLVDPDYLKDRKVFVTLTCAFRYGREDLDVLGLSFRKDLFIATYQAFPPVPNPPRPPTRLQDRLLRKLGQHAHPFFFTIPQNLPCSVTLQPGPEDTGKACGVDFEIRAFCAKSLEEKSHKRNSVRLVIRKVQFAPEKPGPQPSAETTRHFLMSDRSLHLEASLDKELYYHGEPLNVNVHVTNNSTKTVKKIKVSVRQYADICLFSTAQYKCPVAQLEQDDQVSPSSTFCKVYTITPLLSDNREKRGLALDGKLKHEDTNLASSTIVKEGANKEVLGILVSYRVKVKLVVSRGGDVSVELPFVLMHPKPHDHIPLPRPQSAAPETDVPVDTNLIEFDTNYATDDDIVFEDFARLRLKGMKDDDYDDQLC

Target: N-terminal FLAG-tagged human formyl-peptide receptor 1 fused C-terminally to RLuc8 (FPR1-RLuc8) (human) (UniProt P21462)
Test: FRET or BRET; BRET of FPR1-RLuc8 with Venus-β-arrestin in control and GRK-edited HEK293 cells, with and without re-expressed GRKs (Suppl. Fig. S3, A-E); WKYMVm

binding	Substance
binds	β-arrestin 1 fused to Venus fluorescent protein (from UniProt P49407 1-418)
binds	β-arrestin 2 fused to Venus fluorescent protein (from UniProt P32121 1-409)
